From article doi:10.1101/2022.10.07.511216 come the findings set out here.

The chains behind the UniProt entries cited, without tags or fusion partners.
UniProt Q8N697: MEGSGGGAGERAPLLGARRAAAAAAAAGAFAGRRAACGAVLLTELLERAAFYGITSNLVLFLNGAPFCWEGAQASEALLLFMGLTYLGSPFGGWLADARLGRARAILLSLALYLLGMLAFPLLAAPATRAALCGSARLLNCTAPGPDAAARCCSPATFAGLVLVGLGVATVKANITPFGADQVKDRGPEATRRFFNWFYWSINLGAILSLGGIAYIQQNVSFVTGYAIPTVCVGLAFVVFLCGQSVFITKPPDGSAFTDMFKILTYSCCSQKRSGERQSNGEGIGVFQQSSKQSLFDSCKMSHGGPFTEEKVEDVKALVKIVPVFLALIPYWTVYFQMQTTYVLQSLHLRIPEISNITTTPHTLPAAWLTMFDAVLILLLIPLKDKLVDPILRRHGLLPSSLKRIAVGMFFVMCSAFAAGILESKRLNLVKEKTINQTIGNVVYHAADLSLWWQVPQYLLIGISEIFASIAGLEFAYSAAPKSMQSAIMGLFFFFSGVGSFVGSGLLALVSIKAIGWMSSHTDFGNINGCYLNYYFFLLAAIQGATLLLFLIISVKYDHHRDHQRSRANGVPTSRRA

The target in assay [1] is T1, FLAG-TASL (transiently overexpressed in HEK293T cells) (UniProt Q9HAI6).
T1 sequence: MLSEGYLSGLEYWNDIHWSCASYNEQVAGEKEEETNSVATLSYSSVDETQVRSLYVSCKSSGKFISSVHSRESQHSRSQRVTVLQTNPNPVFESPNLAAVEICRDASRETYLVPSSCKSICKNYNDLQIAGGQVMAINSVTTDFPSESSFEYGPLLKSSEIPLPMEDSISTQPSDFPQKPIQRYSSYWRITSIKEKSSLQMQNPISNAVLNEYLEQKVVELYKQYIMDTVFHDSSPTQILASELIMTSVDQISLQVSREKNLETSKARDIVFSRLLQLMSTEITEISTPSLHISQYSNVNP
The assay can be described thus: co-IP.

The target in assay [2] is HA-SLC15A4 (HA-tagged SLC15A4 stably overexpressed in CAL-1 cells) (human) (UniProt Q8N697). The assay can be described thus: co-IP.

These are yes or no findings as the source states them, for the method shown. Binding seen in cells or lysates may run through a third protein. Some entries that bind do so weakly or less than the wild type. For some assays here: Tags and fused reporters may be left off the sequences shown.

For “HA-SLC15A4 (transiently overexpressed in HEK293T cells) (from UniProt Q8N697 1-577)”, the binding entry in assay [1] is recorded as “binds”.

B1: endogenous TASL (protein, UniProt Q9HAI6 1-301)
chain: MLSEGYLSGLEYWNDIHWSCASYNEQVAGEKEEETNSVATLSYSSVDETQVRSLYVSCKSSGKFISSVHSRESQHSRSQRVTVLQTNPNPVFESPNLAAVEICRDASRETYLVPSSCKSICKNYNDLQIAGGQVMAINSVTTDFPSESSFEYGPLLKSSEIPLPMEDSISTQPSDFPQKPIQRYSSYWRITSIKEKSSLQMQNPISNAVLNEYLEQKVVELYKQYIMDTVFHDSSPTQILASELIMTSVDQISLQVSREKNLETSKARDIVFSRLLQLMSTEITEISTPSLHISQYSNVNP
Regarding B1, the binding result in assay [2] was “binds”.
